Measured values from US5360796A, “Imidazo[1,2-a]pyridinylalkyl phosphonic acid compounds for treatment of neurotoxic injury” (G. D. Searle & Co., priority 1991, dated 1994).
The name of at least one read-out is uncertain.

Target: KA
Test: [3H]kainate (KA) binding assay
Design: species or system rat
Settings: 0.5 nM [3H]kainate, synaptic plasma membranes, pH 7.4, 0-4° C., 60 min

Compound	NMDA Receptor Binding Data, Ki IC50 Binding KA [µM]
Cc1c(C(=O)O)nc2c(CP(=O)(O)O)cccn12.Cl [Example 67, 3-methyl-8-(phosphonomethyl)imidazo[1,2-a]pyridine-2-carboxylic acid, monohydrochloride]	> 300
O=C(O)c1cn2c(CP(=O)(O)O)cccc2n1 [Example 7, 5-(phosphonomethyl)imidazo[1,2-a]pyridine-2-carboxylic acid]	123
